According to the supplement of paper PMC10849652:
The list shows a part of the results.

The chains behind the UniProt entries cited, without tags or fusion partners. Where a name states a change or a piece, a line headed by the entry shows the natural chain unless it says otherwise.
UniProt P52565: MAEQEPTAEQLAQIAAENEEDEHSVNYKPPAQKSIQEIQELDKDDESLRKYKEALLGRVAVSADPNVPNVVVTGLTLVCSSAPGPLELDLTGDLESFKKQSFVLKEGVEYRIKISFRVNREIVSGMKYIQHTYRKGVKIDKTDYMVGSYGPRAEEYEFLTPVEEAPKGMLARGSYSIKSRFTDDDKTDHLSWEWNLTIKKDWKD
UniProt P49407: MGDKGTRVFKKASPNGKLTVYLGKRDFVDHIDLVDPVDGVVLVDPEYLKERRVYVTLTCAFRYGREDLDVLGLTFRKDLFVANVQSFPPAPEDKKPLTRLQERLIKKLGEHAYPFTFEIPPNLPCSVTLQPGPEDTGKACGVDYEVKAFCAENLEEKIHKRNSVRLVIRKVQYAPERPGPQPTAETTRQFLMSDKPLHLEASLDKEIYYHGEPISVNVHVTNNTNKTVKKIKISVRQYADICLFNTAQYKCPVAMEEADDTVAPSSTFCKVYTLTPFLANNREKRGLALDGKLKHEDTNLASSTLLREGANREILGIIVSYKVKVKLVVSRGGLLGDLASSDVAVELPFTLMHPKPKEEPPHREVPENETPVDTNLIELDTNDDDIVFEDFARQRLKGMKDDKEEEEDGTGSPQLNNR
UniProt Q4LE39: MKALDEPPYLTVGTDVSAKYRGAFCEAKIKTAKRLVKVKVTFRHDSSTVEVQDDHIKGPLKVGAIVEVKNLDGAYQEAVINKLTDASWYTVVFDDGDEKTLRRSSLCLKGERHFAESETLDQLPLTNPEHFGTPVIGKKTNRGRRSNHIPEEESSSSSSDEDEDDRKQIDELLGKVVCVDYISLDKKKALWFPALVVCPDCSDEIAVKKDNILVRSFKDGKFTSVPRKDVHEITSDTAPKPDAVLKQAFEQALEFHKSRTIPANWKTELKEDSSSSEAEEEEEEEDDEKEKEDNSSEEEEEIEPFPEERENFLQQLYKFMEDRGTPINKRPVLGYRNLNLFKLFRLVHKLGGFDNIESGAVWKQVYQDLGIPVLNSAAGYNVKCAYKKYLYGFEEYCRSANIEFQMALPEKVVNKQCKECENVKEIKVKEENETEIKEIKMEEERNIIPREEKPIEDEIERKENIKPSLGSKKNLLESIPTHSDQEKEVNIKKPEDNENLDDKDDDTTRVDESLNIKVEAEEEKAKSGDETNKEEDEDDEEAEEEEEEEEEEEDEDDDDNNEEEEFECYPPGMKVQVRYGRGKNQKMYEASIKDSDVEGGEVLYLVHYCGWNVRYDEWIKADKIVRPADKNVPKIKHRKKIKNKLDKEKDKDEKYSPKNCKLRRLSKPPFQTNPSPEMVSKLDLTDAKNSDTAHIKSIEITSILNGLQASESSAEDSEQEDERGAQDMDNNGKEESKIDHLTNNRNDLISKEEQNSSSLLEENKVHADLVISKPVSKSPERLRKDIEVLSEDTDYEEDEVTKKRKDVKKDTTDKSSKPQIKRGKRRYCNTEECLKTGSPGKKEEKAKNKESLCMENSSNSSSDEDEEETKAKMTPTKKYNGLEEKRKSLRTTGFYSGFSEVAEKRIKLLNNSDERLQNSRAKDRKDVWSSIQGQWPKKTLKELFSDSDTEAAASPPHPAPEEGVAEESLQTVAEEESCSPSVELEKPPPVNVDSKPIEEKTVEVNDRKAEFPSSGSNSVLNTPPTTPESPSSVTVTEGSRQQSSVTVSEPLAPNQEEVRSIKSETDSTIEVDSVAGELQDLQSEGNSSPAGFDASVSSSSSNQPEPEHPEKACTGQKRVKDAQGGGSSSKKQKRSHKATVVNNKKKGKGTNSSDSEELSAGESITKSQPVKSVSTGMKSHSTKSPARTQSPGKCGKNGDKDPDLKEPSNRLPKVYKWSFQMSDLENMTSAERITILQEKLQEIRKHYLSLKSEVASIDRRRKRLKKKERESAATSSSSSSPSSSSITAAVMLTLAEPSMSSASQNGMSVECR
UniProt P36405: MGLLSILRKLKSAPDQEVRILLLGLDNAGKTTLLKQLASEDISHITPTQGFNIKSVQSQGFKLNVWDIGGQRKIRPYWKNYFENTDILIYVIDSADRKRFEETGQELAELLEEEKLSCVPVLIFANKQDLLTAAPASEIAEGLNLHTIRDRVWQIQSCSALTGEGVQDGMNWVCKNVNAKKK
UniProt Q07960: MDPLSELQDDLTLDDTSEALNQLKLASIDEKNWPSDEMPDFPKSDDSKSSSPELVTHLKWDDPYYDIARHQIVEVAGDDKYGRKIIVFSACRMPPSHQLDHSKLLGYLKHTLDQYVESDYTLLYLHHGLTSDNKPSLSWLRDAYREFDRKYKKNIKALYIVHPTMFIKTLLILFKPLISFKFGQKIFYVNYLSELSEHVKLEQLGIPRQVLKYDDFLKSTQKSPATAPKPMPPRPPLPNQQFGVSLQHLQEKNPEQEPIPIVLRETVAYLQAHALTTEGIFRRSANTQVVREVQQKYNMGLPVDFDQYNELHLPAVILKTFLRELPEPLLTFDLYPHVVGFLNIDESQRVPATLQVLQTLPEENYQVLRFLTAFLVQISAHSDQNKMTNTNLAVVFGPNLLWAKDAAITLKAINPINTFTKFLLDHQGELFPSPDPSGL
UniProt Q14155: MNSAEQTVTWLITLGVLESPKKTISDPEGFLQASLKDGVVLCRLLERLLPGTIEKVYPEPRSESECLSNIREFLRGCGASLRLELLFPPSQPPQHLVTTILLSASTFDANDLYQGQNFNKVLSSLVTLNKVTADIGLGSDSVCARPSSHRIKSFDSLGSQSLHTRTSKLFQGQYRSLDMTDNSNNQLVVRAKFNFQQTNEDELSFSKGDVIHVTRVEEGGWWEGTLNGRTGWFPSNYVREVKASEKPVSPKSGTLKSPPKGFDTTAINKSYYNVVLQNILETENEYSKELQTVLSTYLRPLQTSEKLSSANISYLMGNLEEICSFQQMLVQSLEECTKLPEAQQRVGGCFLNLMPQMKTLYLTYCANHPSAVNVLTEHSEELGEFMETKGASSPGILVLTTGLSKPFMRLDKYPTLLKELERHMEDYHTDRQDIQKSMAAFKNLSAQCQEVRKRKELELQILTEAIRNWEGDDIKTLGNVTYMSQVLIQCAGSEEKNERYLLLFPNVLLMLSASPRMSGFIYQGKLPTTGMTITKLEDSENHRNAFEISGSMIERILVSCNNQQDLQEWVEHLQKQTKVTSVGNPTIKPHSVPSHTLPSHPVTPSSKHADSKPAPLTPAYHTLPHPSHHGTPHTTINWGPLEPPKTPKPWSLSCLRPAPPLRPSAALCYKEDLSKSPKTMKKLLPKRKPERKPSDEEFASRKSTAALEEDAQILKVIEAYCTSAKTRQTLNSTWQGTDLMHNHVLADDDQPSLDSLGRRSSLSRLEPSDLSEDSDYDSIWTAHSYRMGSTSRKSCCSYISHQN
UniProt Q99856: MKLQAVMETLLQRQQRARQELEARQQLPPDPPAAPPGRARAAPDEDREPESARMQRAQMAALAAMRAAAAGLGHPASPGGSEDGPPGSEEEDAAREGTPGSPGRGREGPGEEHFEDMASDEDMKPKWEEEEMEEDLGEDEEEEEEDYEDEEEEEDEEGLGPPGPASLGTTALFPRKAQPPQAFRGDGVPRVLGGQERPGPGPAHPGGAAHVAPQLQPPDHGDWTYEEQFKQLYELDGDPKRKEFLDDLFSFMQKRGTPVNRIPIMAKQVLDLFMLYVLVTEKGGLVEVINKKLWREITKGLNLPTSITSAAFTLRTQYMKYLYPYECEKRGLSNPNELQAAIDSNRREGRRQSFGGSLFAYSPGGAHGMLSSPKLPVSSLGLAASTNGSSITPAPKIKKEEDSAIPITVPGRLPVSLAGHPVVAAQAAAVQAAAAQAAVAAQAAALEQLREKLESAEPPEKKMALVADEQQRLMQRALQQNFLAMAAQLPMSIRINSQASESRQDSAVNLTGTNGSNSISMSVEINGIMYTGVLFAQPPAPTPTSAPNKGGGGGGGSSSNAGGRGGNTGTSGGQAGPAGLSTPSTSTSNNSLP
UniProt P84085: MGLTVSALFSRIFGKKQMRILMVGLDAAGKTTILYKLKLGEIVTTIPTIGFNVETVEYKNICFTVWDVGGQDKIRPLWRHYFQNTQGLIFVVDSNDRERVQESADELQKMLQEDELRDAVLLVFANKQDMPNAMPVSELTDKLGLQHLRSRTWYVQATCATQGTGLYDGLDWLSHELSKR
UniProt P02649, whole entry, looked up: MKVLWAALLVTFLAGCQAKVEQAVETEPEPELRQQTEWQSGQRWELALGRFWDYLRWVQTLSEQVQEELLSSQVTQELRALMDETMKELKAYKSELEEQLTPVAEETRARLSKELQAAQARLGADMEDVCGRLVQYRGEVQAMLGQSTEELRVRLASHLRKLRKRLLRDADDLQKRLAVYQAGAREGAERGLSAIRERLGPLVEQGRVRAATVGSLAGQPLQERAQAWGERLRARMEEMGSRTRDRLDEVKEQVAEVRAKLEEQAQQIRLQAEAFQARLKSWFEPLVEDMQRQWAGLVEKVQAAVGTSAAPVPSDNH
UniProt P07741: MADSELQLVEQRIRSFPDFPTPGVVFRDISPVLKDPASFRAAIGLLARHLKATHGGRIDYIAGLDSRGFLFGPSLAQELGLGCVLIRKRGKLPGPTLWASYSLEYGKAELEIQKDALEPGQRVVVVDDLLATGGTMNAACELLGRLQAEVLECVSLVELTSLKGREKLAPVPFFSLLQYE
UniProt Q9NRW3: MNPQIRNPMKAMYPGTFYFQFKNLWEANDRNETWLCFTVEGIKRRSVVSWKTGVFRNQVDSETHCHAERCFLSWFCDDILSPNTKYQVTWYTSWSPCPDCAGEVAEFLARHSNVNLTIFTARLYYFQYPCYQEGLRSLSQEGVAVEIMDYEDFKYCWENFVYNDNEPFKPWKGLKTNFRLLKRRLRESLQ
UniProt P10398: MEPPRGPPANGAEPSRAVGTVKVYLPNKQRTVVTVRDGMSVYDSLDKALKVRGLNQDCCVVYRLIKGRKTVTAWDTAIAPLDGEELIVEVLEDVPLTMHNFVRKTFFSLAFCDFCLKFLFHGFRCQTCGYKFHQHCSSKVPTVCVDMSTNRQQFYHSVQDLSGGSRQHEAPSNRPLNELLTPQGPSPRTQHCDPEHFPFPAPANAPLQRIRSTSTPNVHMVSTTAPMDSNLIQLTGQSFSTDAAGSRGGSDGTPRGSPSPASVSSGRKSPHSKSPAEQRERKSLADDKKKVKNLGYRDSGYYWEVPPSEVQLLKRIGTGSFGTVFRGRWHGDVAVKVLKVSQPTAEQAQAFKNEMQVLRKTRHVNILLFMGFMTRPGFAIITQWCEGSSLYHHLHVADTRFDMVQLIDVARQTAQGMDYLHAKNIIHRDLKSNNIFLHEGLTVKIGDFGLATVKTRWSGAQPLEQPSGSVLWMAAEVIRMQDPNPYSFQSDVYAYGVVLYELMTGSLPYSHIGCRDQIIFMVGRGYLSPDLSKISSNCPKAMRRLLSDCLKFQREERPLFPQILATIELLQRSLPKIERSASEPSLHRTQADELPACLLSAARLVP
UniProt Q99767, whole entry, looked up: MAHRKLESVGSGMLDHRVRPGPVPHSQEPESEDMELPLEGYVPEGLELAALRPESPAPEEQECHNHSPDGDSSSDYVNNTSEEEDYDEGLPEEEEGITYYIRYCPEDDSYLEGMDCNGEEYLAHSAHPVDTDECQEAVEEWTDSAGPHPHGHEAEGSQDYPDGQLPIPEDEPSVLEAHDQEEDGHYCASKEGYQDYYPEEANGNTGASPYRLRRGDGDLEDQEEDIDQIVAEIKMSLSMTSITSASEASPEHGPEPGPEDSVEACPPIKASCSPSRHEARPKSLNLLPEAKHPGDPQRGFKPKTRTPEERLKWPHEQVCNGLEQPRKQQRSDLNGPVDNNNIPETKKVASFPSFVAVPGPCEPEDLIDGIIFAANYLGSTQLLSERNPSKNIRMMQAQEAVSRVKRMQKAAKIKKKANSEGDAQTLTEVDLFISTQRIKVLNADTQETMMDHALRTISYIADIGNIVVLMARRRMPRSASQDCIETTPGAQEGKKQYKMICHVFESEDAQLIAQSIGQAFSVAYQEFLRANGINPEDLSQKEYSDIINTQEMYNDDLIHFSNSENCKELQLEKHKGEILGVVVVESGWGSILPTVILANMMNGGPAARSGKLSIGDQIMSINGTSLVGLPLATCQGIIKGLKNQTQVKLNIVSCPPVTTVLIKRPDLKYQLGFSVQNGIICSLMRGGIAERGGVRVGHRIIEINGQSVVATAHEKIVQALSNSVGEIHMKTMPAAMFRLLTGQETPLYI
UniProt P27695, whole entry, looked up: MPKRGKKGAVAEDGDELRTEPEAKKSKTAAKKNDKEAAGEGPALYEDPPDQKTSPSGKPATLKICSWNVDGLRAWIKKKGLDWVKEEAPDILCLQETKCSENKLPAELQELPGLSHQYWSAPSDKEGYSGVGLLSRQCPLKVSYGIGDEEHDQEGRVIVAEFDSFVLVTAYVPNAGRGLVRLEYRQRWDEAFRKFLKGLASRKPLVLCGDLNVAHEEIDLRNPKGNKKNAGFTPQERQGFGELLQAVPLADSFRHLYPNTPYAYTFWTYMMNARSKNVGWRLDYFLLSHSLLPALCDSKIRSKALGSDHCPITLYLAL

Tests used:
Test in all cases: log2 fold change, soluble protein after heating vs DMSO (PISA); higher = thermal stabilisation; K562 lysate, 10 uM; active = over 0.2 and 3.5 SD of the protein, either way, in both replicates (recomputed)
erlotinib = compound: C#Cc1cccc(Nc2ncnc3cc(OCCOC)c(OCCOC)cc23)c1 [erlotinib]
Procedure, shortened: (§1)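 Following dounce homogenisation of K562 pellets in PBS pH 7.4 with 1 mM MgCl2, crude extract at 1 mg/mL protein was incubated for 30 min with 10 μM compound. Aliquots were then heated for 3 min over 48°C-58°C and pooled, NP-40 was added to 0.5% at 4°C, and soluble protein was recovered as the supernatant at 21,000xg for 90 min. Channel-sum-equalised TMTpro 16plex LC-MS/MS quantified this protein. Each value, from duplicates, is a log-two fold change in thermal stability relative to solvent controls.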

[1] = compound: C/C(=N\NC(=O)C1=CC(=CC=C1)S(=O)(=O)N2CCOCC2)/C3=C(C=CC(=C3)Cl)O
Procedure, shortened: as §1

[2] = compound: C1=CC(=CC=C1C2=NC3=C(N2)C=C(C=C3)C(=O)N)OC4=CC=C(C=C4)Cl
Procedure, shortened: as §1

[3] = compound: C1=CC2=C(C=CC(=C2)/C=C\3/C(=O)NC(=NCC4=CC=CS4)S3)N=C1
Procedure, shortened: as §1

[4] = compound: C1=CC2=NC=CN=C2C=C1/C=C/3\C(=O)NC(=O)S3
Procedure, shortened: as §1

[5] = compound: C1=CC=C(C=C1)C2=NC(=C(N2)C3=CC=NC=C3)C4=CC(=C(C=C4)Cl)O
Procedure, shortened: as §1

[6] = compound: C1=CC=C2C(=C1)C3=NNC4=CC=CC(=C43)C2=O
Procedure, shortened: as §1

[7] = compound: C1CCN(C1)C(=O)NC2=CC=CC(=C2)NC3=NC=C(C(=N3)NCCC4=CN=CN4)Br
Procedure, shortened: as §1

[8] = compound: C1CN(CCC1(CC2=CC=C(C=C2)Cl)N)C3=NC=NC4=C3C=CN4
Procedure, shortened: as §1

IRAK-1-4 Inhibitor I = compound: C1COCCN1CCN2C3=CC=CC=C3N=C2NC(=O)C4=CC(=CC=C4)[N+](=O)[O-] [IRAK-1-4 Inhibitor I]
Procedure, shortened: as §1

ibrutinib = compound: C=CC(=O)N1CCC[C@@H](n2nc(-c3ccc(Oc4ccccc4)cc3)c3c(N)ncnc32)C1 [ibrutinib]
Procedure, shortened: as §1

[9] = compound: CC(=O)c1cnc2ccc(-c3cc(Cl)c(O)c(Cl)c3)nc2c1N[C@H]1CC[C@H](CN(C)C)CC1
Procedure, shortened: as §1

ralimetinib = compound: CC(C)(C)Cn1c(N)nc2ccc(-c3[nH]c(C(C)(C)C)nc3-c3ccc(F)cc3)nc21 [ralimetinib]
Procedure, shortened: as §1

[10] = compound: CC(C)(O)CC(=O)NCCn1ccc2ncnc(Nc3ccc(Oc4cccc(C(F)(F)F)c4)c(Cl)c3)c21
Procedure, shortened: as §1

[11] = compound: CC(C)C1=C2N=C(C=C(N2N=C1)NCC3=CC=CC=C3)NCCCCCCN
Procedure, shortened: as §1

[12] = compound: CC1=C(C(CC(=O)N1)C2=CC=C(C=C2)C(F)(F)F)C(=O)NC3=C(C=C4C(=C3)C=NN4)F
Procedure, shortened: as §1

[13] = compound: CC1=C(C2=C(C=C1)C(=O)C3=CC=CC=C3N2CCCN)C
Procedure, shortened: as §1

[14] = compound: CC1=C(C=C(C=C1)NC(=O)C2=CC(=CC=C2)C(C)(C)C#N)NC3=CC4=C(C=C3)N=CN(C4=O)C
Procedure, shortened: as §1

[15] = compound: CC1=C(C=C(C=C1)NC(=O)C2=CC(=CC=C2)N(C)C)NC(=O)C3=CC=C(C=C3)O
Procedure, shortened: as §1

[16] = compound: CC1=CC=C(C=C1)SC2=C3C=C(SC3=CN=C2)C(=O)N
Procedure, shortened: as §1

Measured: log2 fold change

ARHGDIA (UniProt P52565)
inactive: erlotinib -0.016 | [1] -0.055 | [2] 0.006 | [3] -0.033 | [4] -0.014 | [5] -0.004 | [6] 0.011 | [7] 0.007 | [8] 0.031 | IRAK-1-4 Inhibitor I 0.005 | ibrutinib -0.001 | [9] -0.012 | ralimetinib -0.019 | [10] -0.024 | [11] 0.007 | [12] -0.055 | [13] -0.025 | [14] 0.007 | [15] 0.003 | [16] -0.01

ARRB1 (UniProt P49407)
inactive: erlotinib 0.004 | [1] -0.012 | [2] 0.007 | [3] -0.039 | [4] -0.046 | [5] 0.025 | [6] 0.014 | [7] 0.016 | [8] -0.013 | IRAK-1-4 Inhibitor I 0.026 | ibrutinib 0.05 | [9] -0.001 | ralimetinib -0.036 | [10] -0.015 | [11] -0.016 | [12] -0.018 | [13] -0.025 | [14] 0.003 | [15] 0.01 | [16] 0.016

ARID4B (UniProt Q4LE39)
inactive: erlotinib 0.015 | [1] -0.058 | [2] 0.093 | [3] 0.045 | [4] -0.033 | [5] 0.014 | [6] -0.014 | [7] -0.061 | [8] 0.01 | IRAK-1-4 Inhibitor I -0.002 | ibrutinib -0.063 | [9] 0.02 | ralimetinib 0.01 | [10] -0.021 | [11] 0.03 | [12] -0.051 | [13] 0.022 | [14] 0.023 | [15] 0.001 | [16] -0.013

ARL3 (UniProt P36405)
inactive: erlotinib -0.005 | [1] -0.032 | [2] 0.014 | [3] -0.013 | [4] 0.003 | [5] 0.017 | [6] 0.038 | [7] 0.017 | [8] 0.031 | IRAK-1-4 Inhibitor I 0.016 | ibrutinib 0.038 | [9] 0.01 | ralimetinib -0.005 | [10] 0.01 | [11] 0.002 | [12] -0.016 | [13] -0.011 | [14] -0.001 | [15] 0.006 | [16] -0.01

ARHGAP1 (UniProt Q07960)
inactive: erlotinib -0.031 | [1] 0.021 | [2] 0.024 | [3] 0.016 | [4] -0.03 | [5] -0.005 | [6] 0.01 | [7] -0.001 | [8] -0.002 | IRAK-1-4 Inhibitor I 0.006 | ibrutinib -0.005 | [9] -0.006 | ralimetinib -0.008 | [10] -0.015 | [11] -0.042 | [12] -0.017 | [13] -0.035 | [14] -0.013 | [15] -0.029 | [16] -0.022

ARHGEF7 isoform 5 (UniProt Q14155)
inactive: erlotinib 0 | [1] -0.025 | [2] 0.015 | [3] 0.03 | [4] 0.027 | [5] 0.038 | [6] 0.094 | [7] -0.027 | [8] 0.024 | IRAK-1-4 Inhibitor I 0.009 | ibrutinib -0.031 | [9] 0.079 | ralimetinib -0.011 | [10] 0.022 | [11] 0.032 | [12] 0.006 | [13] 0.121 | [14] -0.03 | [15] -0.014 | [16] -0.004

ARID3A (UniProt Q99856)
inactive: erlotinib 0.006 | [1] -0.019 | [2] 0.019 | [3] 0.066 | [4] -0.037 | [5] -0.009 | [6] -0.015 | [7] -0.03 | [8] -0.004 | IRAK-1-4 Inhibitor I -0.008 | ibrutinib 0.023 | [9] 0.009 | ralimetinib 0.037 | [10] -0.018 | [11] -0.01 | [12] -0.024 | [13] -0.005 | [14] -0.083 | [15] 0.04 | [16] -0.027

ARF5 (UniProt P84085)
inactive: erlotinib -0.03 | [1] -0.025 | [2] 0.053 | [3] 0.012 | [4] -0.057 | [5] -0.008 | [6] 0.008 | [7] -0.067 | [8] 0.003 | IRAK-1-4 Inhibitor I 0.011 | ibrutinib 0.031 | [9] 0.022 | ralimetinib 0.014 | [10] 0.055 | [11] -0.005 | [12] 0.013 | [13] -0.001 | [14] 0.005 | [15] -0.008 | [16] 0

Four consecutive entries from above, quoted:
ARL3 (UniProt P36405)
inactive: erlotinib -0.005 | [1] -0.032 | [2] 0.014 | [3] -0.013 | [4] 0.003 | [5] 0.017 | [6] 0.038 | [7] 0.017 | [8] 0.031 | IRAK-1-4 Inhibitor I 0.016 | ibrutinib 0.038 | [9] 0.01 | ralimetinib -0.005 | [10] 0.01 | [11] 0.002 | [12] -0.016 | [13] -0.011 | [14] -0.001 | [15] 0.006 | [16] -0.01

ARHGAP1 (UniProt Q07960)
inactive: erlotinib -0.031 | [1] 0.021 | [2] 0.024 | [3] 0.016 | [4] -0.03 | [5] -0.005 | [6] 0.01 | [7] -0.001 | [8] -0.002 | IRAK-1-4 Inhibitor I 0.006 | ibrutinib -0.005 | [9] -0.006 | ralimetinib -0.008 | [10] -0.015 | [11] -0.042 | [12] -0.017 | [13] -0.035 | [14] -0.013 | [15] -0.029 | [16] -0.022

ARHGEF7 isoform 5 (UniProt Q14155)
inactive: erlotinib 0 | [1] -0.025 | [2] 0.015 | [3] 0.03 | [4] 0.027 | [5] 0.038 | [6] 0.094 | [7] -0.027 | [8] 0.024 | IRAK-1-4 Inhibitor I 0.009 | ibrutinib -0.031 | [9] 0.079 | ralimetinib -0.011 | [10] 0.022 | [11] 0.032 | [12] 0.006 | [13] 0.121 | [14] -0.03 | [15] -0.014 | [16] -0.004

ARID3A (UniProt Q99856)
inactive: erlotinib 0.006 | [1] -0.019 | [2] 0.019 | [3] 0.066 | [4] -0.037 | [5] -0.009 | [6] -0.015 | [7] -0.03 | [8] -0.004 | IRAK-1-4 Inhibitor I -0.008 | ibrutinib 0.023 | [9] 0.009 | ralimetinib 0.037 | [10] -0.018 | [11] -0.01 | [12] -0.024 | [13] -0.005 | [14] -0.083 | [15] 0.04 | [16] -0.027

Next results follow:

ARPC5 (UniProt O15511)
inactive: erlotinib -0.016 | [1] 0.024 | [2] -0.049 | [3] -0.049 | [4] 0.002 | [5] 0.021 | [6] -0.006 | [7] -0.01 | [8] -0.011 | IRAK-1-4 Inhibitor I 0.032 | ibrutinib -0.012 | [9] -0.019 | ralimetinib -0.018 | [10] -0.014 | [11] -0.009 | [12] 0.021 | [13] 0.003 | [14] -0.01 | [15] 0 | [16] -0.036

APOE (UniProt P02649)
inactive: erlotinib 0.029 | [1] -0.025 | [2] 0.028 | [3] -0.016 | [4] 0.02 | [5] -0.002 | [6] 0.046 | [7] -0.1 | [8] 0.005 | IRAK-1-4 Inhibitor I 0.042 | ibrutinib 0.003 | [9] 0.014 | ralimetinib -0.025 | [10] -0.014 | [11] -0.017 | [12] 0.02 | [13] -0.048 | [14] -0.013 | [15] 0.022 | [16] 0.008

APRT (UniProt P07741)
inactive: erlotinib 0.023 | [1] 0.005 | [2] 0.007 | [3] -0.025 | [4] -0.001 | [5] 0.005 | [6] -0.003 | [7] 0.015 | [8] 0.04 | IRAK-1-4 Inhibitor I 0.023 | ibrutinib -0.006 | [9] -0.01 | ralimetinib -0.01 | [10] -0.048 | [11] 0.004 | [12] -0.052 | [13] 0.002 | [14] 0.032 | [15] -0.024 | [16] 0.029

APOBEC3C (UniProt Q9NRW3)
inactive: erlotinib 0.054 | [1] 0.058 | [2] -0.029 | [3] 0.066 | [4] 0.056 | [5] -0.017 | [6] 0.015 | [7] 0.031 | [8] -0.003 | IRAK-1-4 Inhibitor I 0.038 | ibrutinib -0.024 | [9] -0.047 | ralimetinib 0.005 | [10] -0.051 | [11] -0.01 | [12] 0 | [13] -0.025 | [14] 0.046 | [15] 0.019 | [16] -0.01

ARAF (UniProt P10398)
inactive: erlotinib -0.002 | [1] -0.129 | [2] -0.018 | [3] 0.014 | [4] -0.046 | [5] 0.067 | [6] 0.03 | [7] 0.012 | [8] -0.049 | IRAK-1-4 Inhibitor I -0.02 | ibrutinib 0.071 | [9] -0.012 | ralimetinib 0.029 | [10] -0.01 | [11] 0.058 | [12] -0.007 | [13] 0.004 | [14] 0.004 | [15] 0.041 | [16] 0.003

APBA2 (UniProt Q99767)
inactive: erlotinib -0.03 | [1] 0.416 | [2] 0.015 | [3] 0.005 | [4] -0.156 | [5] 0.009 | [6] -0.021 | [7] -0.003 | [8] -0.024 | IRAK-1-4 Inhibitor I -0.024 | ibrutinib -0.038 | [9] -0.012 | ralimetinib 0.032 | [10] -0.022 | [11] 0.024 | [12] 0.013 | [13] -0.025 | [14] -0.027 | [15] 0.007 | [16] 0.016

APOBR (UniProt Q0VD83)
inactive: erlotinib -0.017 | [1] 0.034 | [2] 0 | [3] -0.02 | [4] 0.014 | [5] 0.011 | [6] -0.004 | [7] 0.012 | [8] -0.012 | IRAK-1-4 Inhibitor I 0.053 | ibrutinib 0.056 | [9] -0.06 | ralimetinib 0.009 | [10] -0.058 | [11] -0.034 | [12] 0.004 | [13] -0.037 | [14] -0.028 | [15] 0 | [16] -0.077

APEX1 (UniProt P27695)
inactive: erlotinib 0.026 | [1] 0.011 | [2] -0.011 | [3] 0.016 | [4] 0 | [5] 0.004 | [6] -0.072 | [7] 0 | [8] 0.003 | IRAK-1-4 Inhibitor I -0.007 | ibrutinib 0.048 | [9] -0.001 | ralimetinib -0.014 | [10] 0.026 | [11] 0.006 | [12] 0.001 | [13] -0.02 | [14] -0.011 | [15] 0.01 | [16] 0.019
